Assay results as given in PubChem BioAssay AID2685 (National Center for Advancing Translational Sciences (NCATS), 2010).
This is one part of the list. Shown are side measurements of this screen, not its main read-out; they come without a call. Most of these compounds were active or inconclusive in the main read-out, so they are no random draw. Words in brackets tell the shape of the fitted curve; partial curves, single points and poor fits give uncertain potencies.

Experiment: qHTS Assay for Lipid Storage Modulators in Drosophila S3 Cells;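 for cell number change: cells counted by Cell Tracker Red CMTPX staining in the red channel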
Details: BODIPY lipid droplet fluorescence, 18-24 h; for cell number change: measured here: cell count max response, cells fed with added oleic acid
Summary of the method: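 Drosophila S3 cells loaded with oleic acid (400 uM, as added) and compounds at several concentrations; lipid droplets imaged by 488-nm laser-scanning cytometry, 500–530 nm intensity and object ratio to cell channel. Percent activity normalized to 20 uM Triacsin C.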

[1] = measured here: cell number channel AC50, cells fed with added oleic acid
[2] = measured here: lipid fluorescence (Fed channel) AC50, cells fed with added oleic acid

SMILES	cell number change [%]	AC50 [1]	AC50 [2]
Cc1cc(-c2nnc(SCC(=O)c3ccc(Cl)cc3)o2)no1	-58	32.6 µM [falling, partial curve]	29.1 µM [falling, single point]
CC(C)C(=O)Nc1ccc(C(=O)CN2C(=O)NC3(CCOc4ccccc43)C2=O)cc1 (stereo unspecified)	-32.5	0.0058 µM [falling, full curve, poor fit]	25.9 µM [falling, partial curve]
CC(C)(C)c1ccc(C(=O)Nc2ccc(O)c3c(=O)cc(-c4cccc(Cl)c4)oc23)cc1	-30.7	7.31 µM [falling, partial curve]	20.6 µM [falling, single point]
O=C(COC(=O)c1nsc(Cl)c1Cl)NC1CCCC1	-7.66	–	4.11 µM [rising, full curve]
CCC(C)[C@H](NS(=O)(=O)c1ccc(C)cc1)C(=O)N1CCC(C(=O)N2CCC(C(N)=O)CC2)CC1 (stereo partly specified)	26.5	–	29.1 µM [rising, partial curve]
Cc1nc(N2CCN(C)CC2)c2sc(=S)n(C)c2n1	3.2	–	–
C#CCOCCOCCOCCNc1nc(N2CCN(C(=O)CCCCCCCCCCNC(=O)Cn3cc(C[C@@H](C)O)nn3)CC2)nc(N2CCN(C(=O)CCCCCCCCCCNC(=O)[C@H](CCCCN)n3cc(CCCC(=O)O)nn3)CC2)n1	8.05	–	29.1 µM [falling, single point]
CC(=O)Nc1cccc(-c2csc(Nc3ncccn3)n2)c1	150	0.651 µM [rising, single point]	6.51 µM [falling, single point]
Cc1oc(-c2ccc(Cl)cc2)nc1CS(=O)CC(=O)NC1CC1 (stereo unspecified)	-24	–	–
Cn1c(=O)n(C)c2cc(NC(=O)c3cccc([N+](=O)[O-])c3)c(Br)cc21	26.6	–	29.1 µM [rising, single point]
COc1cccc(-c2c(C(=O)N/N=C(\C)c3ccncc3)nnn2-c2nonc2N)c1	9.68	–	0.731 µM [falling, single point]
CCOC(=O)C1=C(C)NC(SCC(=O)Nc2nc(C)cs2)=C(C#N)C1c1cccs1 (stereo unspecified)	–	–	0.092 µM [falling, full curve, poor fit]
COc1ccc(N(CC(=O)O)S(=O)(=O)c2ccc(OC)c(OC)c2)cc1	35.3	–	–
C/C(N)=C(/C#N)C(=O)COC(=O)Cc1coc2ccc3ccccc3c12	124	4.61 µM [rising, full curve]	3.66 µM [rising, full curve]
CCN(/N=C/c1ccc(Cl)cc1)c1cc(=O)n(C)c(=O)[nH]1	-14	–	0.13 µM [rising, full curve, poor fit]

Shown with bars between the fields: four of the compounds above.
SMILES | cell number change [%] | AC50 [1] | AC50 [2]
Cc1oc(-c2ccc(Cl)cc2)nc1CS(=O)CC(=O)NC1CC1 (stereo unspecified) | -24 | – | –
Cn1c(=O)n(C)c2cc(NC(=O)c3cccc([N+](=O)[O-])c3)c(Br)cc21 | 26.6 | – | 29.1 µM [rising, single point]
COc1cccc(-c2c(C(=O)N/N=C(\C)c3ccncc3)nnn2-c2nonc2N)c1 | 9.68 | – | 0.731 µM [falling, single point]
CCOC(=O)C1=C(C)NC(SCC(=O)Nc2nc(C)cs2)=C(C#N)C1c1cccs1 (stereo unspecified) | – | – | 0.092 µM [falling, full curve, poor fit]
